Construct, isoform or probe ends are uncertain for at least one entry. For some assays here: A negative result means that nothing was seen under these conditions. For some assays here: A weaker result is weaker than the reference pair of the same experiment. For some assays here: Where a protein sequence is shown, tags need not be part of it.

Chains of the proteins cited; added tags and fusions are not shown. Lines headed by an entry give the natural chain unless they say otherwise; changes in a name come on top.
UniProt P08515, whole entry: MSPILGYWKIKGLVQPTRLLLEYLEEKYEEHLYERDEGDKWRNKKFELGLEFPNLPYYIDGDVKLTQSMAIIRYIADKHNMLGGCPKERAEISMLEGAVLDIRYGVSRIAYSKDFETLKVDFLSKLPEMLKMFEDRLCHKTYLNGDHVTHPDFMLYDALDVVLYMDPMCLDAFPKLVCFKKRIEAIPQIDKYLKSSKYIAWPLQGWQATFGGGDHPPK
UniProt P52926: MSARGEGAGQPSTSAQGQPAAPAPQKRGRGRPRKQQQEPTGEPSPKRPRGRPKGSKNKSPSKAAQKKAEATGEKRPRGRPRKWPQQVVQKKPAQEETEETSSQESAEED

Experiment in all cases: EMSA
Background: A gel shift assay detects complexes by their altered migration in electrophoresis.

For series [1], the system named is GST-NPM1 1-295. The conditions noted are these: no HMGA, EMSA: 4 pmol HMGA preincubated 10 min at 4°C with GST-NPM1/GST in 25 mM Tris/HCl pH 8, 5 mM GSH (8 uL), then 0.1 pmol DNA for 10 min in 180 mM NaCl, 1 mM MgCl2, recombinant protein, protein details: N-terminal GST, label: 32P.
Series [2] has as its target GST (UniProt P08515). The conditions noted are these: 0.5 and 10 pmol, no HMGA; EMSA: 4 pmol HMGA preincubated 10 min at 4°C with GST-NPM1/GST in 25 mM Tris/HCl pH 8, 5 mM GSH (8 uL); then 0.1 pmol DNA for 10 min in 180 mM NaCl, 1 mM MgCl2; recombinant protein; label: 32P.
The target of series [3] is T1, HMGA1a (UniProt P17096).
T1 sequence (looked up, limits assumed): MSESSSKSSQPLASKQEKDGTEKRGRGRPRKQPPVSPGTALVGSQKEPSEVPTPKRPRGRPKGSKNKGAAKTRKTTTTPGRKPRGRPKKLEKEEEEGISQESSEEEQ
The conditions noted are these: GST-NPM1 0.5-30 pmol, complex decreases, disappears at 30 pmol; EMSA: 4 pmol HMGA preincubated 10 min at 4°C with GST-NPM1/GST in 25 mM Tris/HCl pH 8, 5 mM GSH (8 uL); then 0.1 pmol DNA for 10 min in 180 mM NaCl, 1 mM MgCl2; recombinant protein; label: 32P.

Series [4] concerns the target HMGA2 (UniProt P52926). The conditions noted are these: GST-NPM1 0.5-10 pmol, complex decreases; EMSA: 4 pmol HMGA preincubated 10 min at 4°C with GST-NPM1/GST in 25 mM Tris/HCl pH 8, 5 mM GSH (8 uL); then 0.1 pmol DNA for 10 min in 180 mM NaCl, 1 mM MgCl2; recombinant protein; label: 32P.

On to “AGAAAAACTCCATCTAAAAAAAAAAAAAAAAAAAAAAAAAAACA (double strand) [E3]”, for which, in series [1] (6 and 30 pmol), the binding result is recorded as “no binding”.

Take “GACACATTAATCTATAATCAAATA (double strand) [HCRII]”: the binding result is “no binding” in series [2], “no binding” in series [1] (0.5-30 pmol), “binds more weakly” in series [3] and “binds more weakly” in series [4].
